Experimental data reported in paper PMC3715419.
No constants are given. Whether binding was seen depends on the method and setting.

Key:
MUS-81 (C. elegans) = molecular target: T1, MUS-81 (C. elegans) (UniProt P91153); experiment: two-hybrid; matrix-based, all pair-wise combinations; Gal4 DB-X (pVV212) in MATalpha Y8930 mated with AD-Y (pVV213) in MATa Y8800; diploids scored by growth on SC-Leu-Trp-His plates at 30°C; vector alone as negative control
T1 sequence: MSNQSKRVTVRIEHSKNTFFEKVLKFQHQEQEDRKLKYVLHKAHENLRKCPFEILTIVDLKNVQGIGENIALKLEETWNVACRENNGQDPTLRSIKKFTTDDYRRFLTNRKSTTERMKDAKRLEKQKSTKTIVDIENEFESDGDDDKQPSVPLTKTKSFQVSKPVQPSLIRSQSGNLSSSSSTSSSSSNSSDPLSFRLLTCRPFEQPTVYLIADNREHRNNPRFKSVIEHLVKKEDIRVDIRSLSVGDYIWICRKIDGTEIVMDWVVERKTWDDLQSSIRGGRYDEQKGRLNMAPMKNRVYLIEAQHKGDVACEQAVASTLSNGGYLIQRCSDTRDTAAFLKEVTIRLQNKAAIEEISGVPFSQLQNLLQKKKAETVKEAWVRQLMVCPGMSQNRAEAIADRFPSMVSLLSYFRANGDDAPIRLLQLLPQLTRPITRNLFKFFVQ

SLX-1 (C. elegans) = molecular target: T2, SLX-1 (C. elegans) (UniProt P91351); experiment: as above
T2 sequence: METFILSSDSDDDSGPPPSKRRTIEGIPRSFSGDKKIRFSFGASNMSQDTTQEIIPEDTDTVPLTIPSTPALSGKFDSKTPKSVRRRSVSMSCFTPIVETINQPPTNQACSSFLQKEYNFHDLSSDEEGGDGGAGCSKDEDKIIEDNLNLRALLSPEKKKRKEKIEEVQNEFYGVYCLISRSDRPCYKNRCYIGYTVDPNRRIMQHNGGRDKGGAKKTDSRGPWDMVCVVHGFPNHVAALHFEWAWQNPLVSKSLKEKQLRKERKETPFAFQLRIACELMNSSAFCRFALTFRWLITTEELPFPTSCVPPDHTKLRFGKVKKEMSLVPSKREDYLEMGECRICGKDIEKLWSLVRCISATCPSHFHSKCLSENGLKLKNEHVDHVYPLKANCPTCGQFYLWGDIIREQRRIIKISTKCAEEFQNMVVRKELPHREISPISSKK

B1: GEN-1 (protein, UniProt Q22418 1-434)
chain: MTINGIWEWANHVVRKVPNETMRDKTLSIDGHIWLYESLKGCEAHHQQTPNSYLVTFFTRIQRLLELKIIPIVVFDNINASSSAHESKDQNEFVPRKRRSFGDSPFTNLVDHVYKTNALLTELGIKVIIAPGDGEAQCARLEDLGVTSGCITTDFDYFLFGGKNLYRFDFTAGTSSTACLHDIMHLSLGRMFMEKKVSRPHLISTAILLGCDYFQRGVQNIGIVSVFDILGEFGDDGNEEIDPHVILDRFASYVREEIPARSEDTQRKLRLRRKKYNFPVGFPNCDAVHNAITMYLRPPVSSEIPKIIPRAANFQQVAEIMMKECGWPATRTQKELALSIRRKVHLTTTVAQTRIPDFFAATKSKNFTPIVEPCESLEDYISANNTWMRKRKRSESPQILQHHAKRQVPDRKRSVKIRAFKPYPTDVIELGDSD
binding (MUS-81 (C. elegans)): no binding | binding (SLX-1 (C. elegans)): no binding
